Assay results published in PubChem BioAssay AID1487 (National Center for Advancing Translational Sciences (NCATS), 2009).
The list shows a part of the results. These are further read-outs of the screen, such as a control signal, another cell line or another target. No call is given for them. Compounds called inactive in the main read-out are mostly missing here. The note in brackets gives the kind of curve behind each potency; many fits are weak.

Test: qHTS Assay for Modulators of Lamin A Splicing
Details: HeLa LMNA splicing GFP/RFP minigene ratio, 48 h
Summary of the method: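 S3 HeLa cells stably expressing lamin A-EGFP splicing minigene plus DsRed2, 600 cells/well, 48 h compound exposure at 37C. Laser-scanning cytometry; analysed as GFP (500-530 nm)/RFP (575-640 nm) total intensity ratio; 0.5% DMSO vehicle.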

[1] = measured here: GFP splicing reporter channel
[2] = measured here: RFP viability control channel

Compound	AC50 [1]	AC50 [2]
CCOC(=O)C(C)Sc1nc(-c2ccccn2)ncc1OC (stereo not drawn)	0.0316 µM [falling, full curve, poor fit]	–
CC(C)CCNC1=CC(=O)CC(c2ccccc2)C1 (stereo not drawn)	6.31 µM [falling, single point]	4.47 µM [falling, partial curve, poor fit]
Cc1n[nH]c(C)c1Cc1ccc(C(=O)O)cc1	3.16 µM [falling, full curve]	3.55 µM [falling, full curve]
O=c1c2c(nc3c(-c4ccc(Cl)cc4)c[nH]n13)CCCC2	–	3.98 µM [rising, full curve]
COc1cccc(/C=N/N2C(=O)CSC2=S)c1O	11.2 µM [falling, partial curve]	11.2 µM [falling, partial curve]
Cc1nc(NCCc2ccc(S(N)(=O)=O)cc2)c2c(C)c(C)sc2n1	–	7.94 µM [rising, partial curve]
CCOC(=O)c1c(-c2ccc(C)cc2C)csc1NC(=O)CSc1nnnn1C	–	14.1 µM [rising, partial curve]
Cc1ccc(Sc2nnc(Cc3ccccc3)c3ccccc23)cc1	22.4 µM [falling, single point]	–
COc1ccc(C2C=C(C34CC5CC(CC(C5)C3)C4)NC(=S)N2)cc1OC (stereo not drawn)	–	11.2 µM [rising, partial curve]
CCCCNC(=O)CSc1nc2ccccc2nc1Cc1ccc(Cl)cc1	1 µM [rising, partial curve]	–
CC(C)C(=O)N1c2ccccc2NC2=C(C(=O)CCC2)C1c1ccc(N(C)C)cc1 (stereo not drawn)	1.41 µM [falling, full curve, poor fit]	0.178 µM [falling, full curve]
COc1ccccc1CNc1ccnc(-c2ccccc2Cl)n1	15.8 µM [falling, partial curve, poor fit]	–
CC(Sc1nnc2ccccn12)C(N)=O (stereo not drawn)	–	11.2 µM [falling, single point]
CCOc1ccccc1C1CC(c2ccc(Br)cc2)Nc2nc(N)nn21 (stereo not drawn)	–	0.0398 µM [rising, full curve, poor fit]
COc1cc(OC)c(NC(=O)Nc2ccccc2OCc2cc(=O)n3cc(C)ccc3n2)cc1Cl	0.398 µM [rising, single point]	0.794 µM [rising, single point]
COCC(=O)Nc1ccc(OCc2ccccc2)cc1	7.08 µM [rising, partial curve, poor fit]	–
COc1ccc(NC(=O)CN(C)S(=O)(=O)c2ccc3[nH]c4c(c3c2)CCCC4)cc1Cl	25.1 µM [falling, partial curve]	11.2 µM [falling, partial curve]
COc1ccc(CCNC(=O)Cn2nnc(-c3ccc(N4CCOCC4)cc3)n2)cc1OC	6.31 µM [rising, partial curve, poor fit]	2 µM [rising, full curve, poor fit]

Compound	AC50 [1]	AC50 [2]
O=C(CCN1CCc2ccccc2C(c2ccccc2)C1)c1ccc2c(c1)OCCO2 (stereo not drawn)	–	11.2 µM [rising, partial curve]
Cc1ccc2cc(CCNC(=O)c3cccs3)c(=O)[nH]c2c1C	0.447 µM [falling, single point]	–
O=C(CSc1ncnc2nc[nH]c12)c1ccc2ccccc2c1	–	31.6 µM [rising, single point]
CC12C=CC(=O)C=C1CCC1C3CCC(O)(C(=O)CO)C3(C)CC3OC312 (stereo not drawn)	0.00355 µM [rising, full curve, poor fit]	–
CC1CCC2C(=O)N(c3ccc(NC4CCN(Cc5ccccc5)CC4)c([N+](=O)[O-])c3)C(=O)C2C1 (stereo not drawn)	8.91 µM [falling, partial curve]	4.47 µM [falling, partial curve]
Cn1cc(/C=N/n2cnc3scc(-c4ccccc4)c3c2=O)c2ccccc21	5.01 µM [falling, full curve]	5.62 µM [falling, full curve]
CCCCCc1ccc(S(=O)(=O)NCCc2ccncc2)cc1	–	12.6 µM [rising, partial curve]
CC(C)NC(=O)COC(=O)c1cc(F)c(F)cc1Cl	–	2.24 µM [falling, partial curve, poor fit]
CC(C)CNc1c(N)n(CC(C)C)c(=O)[nH]c1=O	0.0178 µM [falling, full curve, poor fit]	–
CC#CCOC(=O)c1c(C)nc2sc3c(c2c1N)CCC(O)C3 (stereo not drawn)	0.794 µM [rising, full curve, poor fit]	0.00447 µM [falling, full curve, poor fit]
CCC(=O)O[C@@]1(C(=O)SCF)[C@@H](C)C[C@H]2[C@@H]3C[C@@H](F)C4=CC(=O)C=C[C@@]4(C)[C@]3(F)[C@@H](O)C[C@]21C	0.0158 µM [falling, full curve, poor fit]	–
O=C(NCCn1cc(SCc2ccc(F)cc2)c2ccccc21)c1ccccc1F	10 µM [rising, partial curve]	20 µM [rising, single point]
Cc1c(CCOC(=O)c2cc([N+](=O)[O-])cc([N+](=O)[O-])c2)sc[n+]1CC(=O)c1ccccc1	10 µM [rising, single point]	–
CN1CCc2cccc3c2C1Cc1ccc(O)c(O)c1-3 (stereo not drawn)	14.1 µM [falling, partial curve, poor fit]	25.1 µM [falling, partial curve]
Cc1cccc(NC(=O)CSc2nc3c([nH]c4ccccc43)c(=O)n2C)c1	35.5 µM [falling, partial curve]	35.5 µM [falling, partial curve]
N#C/C(=C/c1ccc(N2CCOCC2)o1)C(=O)Nc1ccccc1	0.158 µM [rising, full curve]	–
CC(N)(C(=O)O)c1ccc(C(=O)O)cc1 (stereo not drawn)	0.00631 µM [rising, full curve, poor fit]	–

3 structures out of the list, ordered by molar mass, smallest number first:
Compound	AC50 [1]	AC50 [2]
CN1CCc2cccc3c2C1Cc1ccc(O)c(O)c1-3 (stereo not drawn)	14.1 µM [falling, partial curve, poor fit]	25.1 µM [falling, partial curve]
CC(C)NC(=O)COC(=O)c1cc(F)c(F)cc1Cl	–	2.24 µM [falling, partial curve, poor fit]
Cn1cc(/C=N/n2cnc3scc(-c4ccccc4)c3c2=O)c2ccccc21	5.01 µM [falling, full curve]	5.62 µM [falling, full curve]
